This passage reports binding signal results from paper PMC7819943, “Rice protein-binding microarrays: a tool to detect cis-acting elements near promoter regions in rice”.

Sequences of proteins named here, by UniProt entry; tags and fusion partners are left off.
UniProt Q0JBA9, entry or part of it: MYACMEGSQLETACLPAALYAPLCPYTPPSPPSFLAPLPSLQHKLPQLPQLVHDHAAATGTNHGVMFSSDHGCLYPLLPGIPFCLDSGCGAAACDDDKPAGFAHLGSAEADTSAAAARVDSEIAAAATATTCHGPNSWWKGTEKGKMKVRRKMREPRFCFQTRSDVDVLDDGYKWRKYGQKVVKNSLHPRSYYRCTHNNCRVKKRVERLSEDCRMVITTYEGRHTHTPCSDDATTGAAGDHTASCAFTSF

The list shows a part of the results.

The target in the assay is OsWRKY34 (Oryza sativa, UniProt Q0JBA9 1-250). Put plainly: protein-binding microarray (RPBM); PBS, 2% BSA, 51.3 ng/ul salmon testes DNA, 50 uM zinc acetate, 200 nM TF, 25 C, 1 h; high values mean tight binding. The conditions noted are these: protein: recombinant; tags: N-terminal polyhistidine and DsRed monomer fusion (pET32a); label: CyDye5-dUTP incorporated in the synthesized complementary strand; 3' TTTTT single-stranded linker to array surface; dsDNA, one strand shown. The method, boiled down: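 Transcription factors were each fused at the N-terminus to a polyhistidine tag plus DsRed and expressed in E. coli BL21-CodonPlus before Ni–NTA purification. Binding to a double-stranded custom Agilent array was carried out with 200 nM protein at 25 °C for 1 h in PBS, 2% BSA, salmon testes DNA and 50 µM zinc acetate. The binding signal is per-feature fluorescence intensity, in arbitrary units, on an Axon 4000B scanner.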
For “TGCAGTGTGTGTATGATAGGTGTGACCATATATTAATAGTCGGAGTCACCTAGTGCAG”, the binding signal was 9480 fluorescence intensity (a.u.).

As for “GTTTCCTTAGTTCCTTCGAAACAAGATTGTTTTTTATCACCGGAGTCACCTAGTGCAG”, the binding signal is 8470 fluorescence intensity (a.u.).

Take “ACTCTCTCACCTTCTCACGCCTCATCGCTTTGTTCTCATCCGGAGTCACCTAGTGCAG”: the binding signal was 9840 fluorescence intensity (a.u.).

Take “GCCGCCCACCGCTTGACCTCCCTCCGTGGCGCTGCCTCCACGGAGTCACCTAGTGCAG”: the binding signal is 8320 fluorescence intensity (a.u.).

For the sequence “CGCCGCGTTCCCAACTCCATGTCCCGTCTTCTTCCCTGAACGGAGTCACCTAGTGCAG”, the binding signal was 13900 fluorescence intensity (a.u.).

For the sequence “GTGGTAATTCTGTAGTTGTTTTTTTTTCGAGTTCTTGTGTCGGAGTCACCTAGTGCAG”, the binding signal is 10300 fluorescence intensity (a.u.).

In the case of “TATGGCAATCGTTTTTTCCTTAATACTTGAATTCTAGATACGGAGTCACCTAGTGCAG”, the binding signal was 8180 fluorescence intensity (a.u.).

Regarding “TCTCTCCCTGTGAATTGTGGGTGTGTTTAGTTCGCGAAAACGGAGTCACCTAGTGCAG”, the binding signal is 10300 fluorescence intensity (a.u.).

As to “TCAGGTCAATCCGGCCGTTTCATACGCGCGACTCCGCGAGCGGAGTCACCTAGTGCAG”, the binding signal was 9420 fluorescence intensity (a.u.).

As to “AAGACGAATGGTCAAACATTGTGGAAAAGTCAACGGCATTCGGAGTCACCTAGTGCAG”, the binding signal was 10000 fluorescence intensity (a.u.).

“AACTATCAACACCATTGCCTATTGCCGCACCACGCTATCTCGGAGTCACCTAGTGCAG”: the binding signal is 10400 fluorescence intensity (a.u.).

As to “TCCCTCCACCACCACCACCACCACCGCACAACCCAGCTTTCGGAGTCACCTAGTGCAG”, the binding signal was 9220 fluorescence intensity (a.u.).

With “TTTCCGATTATTTTATTTATTTTCCTTCCATATAAGCCTTCGGAGTCACCTAGTGCAG”, the binding signal is 9000 fluorescence intensity (a.u.).

For the sequence “TCTGCCATTCACTTCGGGTTGCTGCCCTTTTTTTGTTCTTCGGAGTCACCTAGTGCAG”, the binding signal is 12100 fluorescence intensity (a.u.).

“GTGCTCCGCGCCGTCGCCTCCGCGCCCCTGCCAGCTGCTCCGGAGTCACCTAGTGCAG”: the binding signal is 9810 fluorescence intensity (a.u.).

On to “TAACTTCGTCTGCTGCTCATTTTTCACCATCAAATTCCTACGGAGTCACCTAGTGCAG”, for which the binding signal is 10800 fluorescence intensity (a.u.).

For the sequence “ATCTCGTTTAGTTTGGACTAGTCCACTTAAATTACTCAAACGGAGTCACCTAGTGCAG”, the binding signal is 8660 fluorescence intensity (a.u.).

Take “AGTCCATTTAATTTCTAGTTTGTTATTGATTTCTATATAACGGAGTCACCTAGTGCAG”: the binding signal is 9110 fluorescence intensity (a.u.).

As for “GCCGACCGCCACCGCCCCGCGCCGCCTTCCCCGCCTCCGCCGGAGTCACCTAGTGCAG”, the binding signal was 8420 fluorescence intensity (a.u.).

“CCACCGGCCGCCTCGTCCTCTCGCCATGGCCGCACCATCCCGGAGTCACCTAGTGCAG”: the binding signal is 8600 fluorescence intensity (a.u.).

On to “TGCTCTACTCTCGATTTCCATTGTCAAAGGTAAGGTCACTCGGAGTCACCTAGTGCAG”, for which the binding signal was 8770 fluorescence intensity (a.u.).

On to “GTCGTTTGATGATAATGCCCACTCTATTACGTGGCCTGAACGGAGTCACCTAGTGCAG”, for which the binding signal was 8500 fluorescence intensity (a.u.).

“AAAATCTGGGCTGCCATATCTCATTCAAGCTTGACCGTTACGGAGTCACCTAGTGCAG”: the binding signal is 8960 fluorescence intensity (a.u.).
